This is one part of the list. The main result of the screen is listed elsewhere. These columns were measured beside it and carry no call. Compounds called inactive in the main read-out are mostly missing here. The note in brackets gives the kind of curve behind each potency; many fits are weak.
Experiment: qHTS Assay for Modulators of Lamin A Splicing
Details: HeLa LMNA splicing GFP/RFP minigene ratio, 48 h
How it was run: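 S3 HeLa cells stably expressing lamin A-EGFP splicing minigene plus DsRed2, 600 cells/well, 48 h compound exposure at 37C. Laser-scanning cytometry; analysed as GFP (500-530 nm)/RFP (575-640 nm) total intensity ratio; 0.5% DMSO vehicle.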

[1] = measured here: GFP splicing reporter channel
[2] = measured here: RFP viability control channel

Row | SMILES | AC50 [1] | AC50 [2]
1 | O=C(NNc1ccc(F)cc1F)c1c(F)cccc1Cl | 22.4 µM [rising, partial curve] | 31.6 µM [rising, single point]
2 | CCOc1ccc(C(=O)NCCc2sc(-c3ccc(OC)c(OC)c3)nc2C)cc1 | 10 µM [falling, partial curve] | 0.0562 µM [falling, full curve, poor fit]
3 | Cc1ccc(C)c(N2CCN(C(=O)c3cc(C)nc4c3c(C)nn4-c3cccc(F)c3)CC2)c1 | – | 35.5 µM [rising, partial curve, poor fit]
4 | Cn1c(N2CCC(C(N)=O)CC2)nc2c1c(=O)n(Cc1cccc(Br)c1)c(=O)n2C | 20 µM [rising, single point] | 20 µM [rising, partial curve]
5 | COc1ccccc1NS(=O)(=O)c1ccc(N/N=C(\C)C(C)C)c([N+](=O)[O-])c1 | – | 5.62 µM [rising, full curve]
6 | COc1ccc(Cn2c(SCc3ccccc3C)nc3cc(OC)c(OC)cc3c2=N)cc1 | 14.1 µM [falling, partial curve] | 12.6 µM [falling, partial curve]
7 | COc1ccccc1NC(=O)Cn1c(=O)n(CCc2c[nH]c3ccccc23)c(=O)c2cccnc21 | 1.58 µM [rising, full curve] | 3.55 µM [rising, full curve, poor fit]
8 | CN1CCN(C(=O)c2ccc(CSc3nc4ccncc4n3Cc3ccc(F)cc3)cc2)CC1 | – | 12.6 µM [rising, single point]
9 | CC(=O)SC1CC2=CC(=O)CCC2(C)C2CCC3(C)C(CCC34CCC(=O)O4)C12 (stereo unspecified) | – | 0.0794 µM [rising, full curve]
10 | O=C(CSc1nnc(-c2ccccn2)n1Cc1ccco1)c1ccc(Cl)cc1 | 20 µM [rising, partial curve, poor fit] | –
11 | CCCCC(=O)NC(NC(=S)N1CCCCCC1)C(Cl)(Cl)Cl (stereo unspecified) | 31.6 µM [rising, single point] | 35.5 µM [rising, single point]
12 | Cc1nc(NCc2ccco2)c2oc3ccccc3c2n1 | – | 11.2 µM [rising, partial curve]
13 | CCOC(=O)N1CCN(c2ccc(C(=O)c3ccccc3)cc2F)CC1 | – | 35.5 µM [rising, single point]
14 | O=C(CN1CCN(c2nc(-c3ccccc3)cs2)CC1)NCc1ccc2c(c1)OCO2 | 35.5 µM [rising, single point] | 35.5 µM [rising, single point]

Part of the list above, in markdown:

| Row | SMILES | AC50 [1] | AC50 [2] |
| --- | --- | --- | --- |
| 3 | Cc1ccc(C)c(N2CCN(C(=O)c3cc(C)nc4c3c(C)nn4-c3cccc(F)c3)CC2)c1 | – | 35.5 µM [rising, partial curve, poor fit] |
| 5 | COc1ccccc1NS(=O)(=O)c1ccc(N/N=C(\C)C(C)C)c([N+](=O)[O-])c1 | – | 5.62 µM [rising, full curve] |
| 11 | CCCCC(=O)NC(NC(=S)N1CCCCCC1)C(Cl)(Cl)Cl (stereo unspecified) | 31.6 µM [rising, single point] | 35.5 µM [rising, single point] |
